Test results as given in doi:10.64898/2025.12.17.694855.
Results are given in words; binding and its absence hold for the method and conditions named. In cells and extracts the contact can be indirect. A yes stands for co-enrichment or nearness to the bait. Other partners may have been found.

How the values were obtained:
[1] = target: T1, Lsm1-TAP (S. cerevisiae), P47017; assay: affinity purification with mass spectrometry; settings: remark: other sources report otherwise
T1 chain: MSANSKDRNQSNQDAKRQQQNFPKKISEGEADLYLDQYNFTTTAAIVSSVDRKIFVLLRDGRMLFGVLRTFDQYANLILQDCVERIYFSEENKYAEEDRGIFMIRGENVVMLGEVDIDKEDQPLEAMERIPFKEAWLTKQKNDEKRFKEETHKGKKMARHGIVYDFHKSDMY

[2] = target: T2, Dcp1-TAP (S. cerevisiae), Q12517; assay: affinity purification with mass spectrometry; settings: remark: other sources report otherwise
T2 chain: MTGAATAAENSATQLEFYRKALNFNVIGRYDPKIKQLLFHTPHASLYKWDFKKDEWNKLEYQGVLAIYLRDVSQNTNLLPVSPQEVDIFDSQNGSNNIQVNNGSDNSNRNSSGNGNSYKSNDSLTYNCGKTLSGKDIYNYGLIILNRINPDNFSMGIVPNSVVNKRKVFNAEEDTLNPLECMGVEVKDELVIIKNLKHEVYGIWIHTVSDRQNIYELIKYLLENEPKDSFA

B1: Dcp2, P53550 1-970 (protein)
chain: MSLPLRHALENVTSVDRILEDLLVRFIINCPNEDLSSVERELFHFEEASWFYTDFIKLMNPTLPSLKIKSFAQLIIKLCPLVWKWDIRVDEALQQFSKYKKSIPVRGAAIFNENLSKILLVQGTESDSWSFPRGKISKDENDIDCCIREVKEEIGFDLTDYIDDNQFIERNIQGKNYKIFLISGVSEVFNFKPQVRNEIDKIEWFDFKKISKTMYKSNIKYYLINSMMRPLSMWLRHQRQIKNEDQLKSYAEEQLKLLLGITKEEQIDPGRELLNMLHTAVQANSNNNAVSNGQVPSSQELQHLKEQSGEHNQQKDQQSSFSSQQQPSIFPSLSEPFANNKNVIPPTMPMANVFMSNPQLFATMNGQPFAPFPFMLPLTNNSNSANPIPTPVPPNFNAPPNPMAFGVPNMHNLSGPAVSQPFSLPPAPLPRDSGYSSSSPGQLLDILNSKKPDSNVQSSKKPKLKILQRGTDLNSIKQNNNDETAHSNSQALLDLLKKPTSSQKIHASKPDTSFLPNDSVSGIQDAEYEDFESSSDEEVETARDERNSLNVDIGVNVMPSEKDSRRSQKEKPRNDASKTNLNASAESNSVEWGPGKSSPSTQSKQNSSVGMQNKYRQEIHIGDSDAYEVFESSSDEEDGKKLEELEQTQDNSKLISQDILKENNFQDGEVPHRDMPTESNKSINETVGLSSTTNTVKKVPKVKILKRGETFASLANDKKAFDSSSNVSSSKDLLQMLRNPISSTVSSNQQSPKSQHLSGDEEIMMMLKRNSVSKPQNSEENASTSSINDANASELLGMLKQKEKDITAPKQPYNVDSYSQKNSAKGLLNILKKNDSTGYPRTEGGPSSEMSTSMKRNDATNNQELDKNSTELLNYLKPKPLNDGYENISNKDSSHELLNILHGNKNSSAFNNNVYATDGYSLASDNNENSSNKLLNMLQNRSSAINEPNFDVRSNGTSGSNELLSILHRK
binding [1]: binds

B2: Pat1, P25644 1-796 (protein)
chain: MSFFGLENSGNARDGPLDFEESYKGYGEHELEENDYLNDETFGDNVQVGTDFDFGNPHSSGSSGNAIGGNGVGATARSYVAATAEGISGPRTDGTAAAGPLDLKPMESLWSTAPPPAMAPSPQSTMAPAPAPQQMAPLQPILSMQDLERQQRQMQQQFMNFHAMGHPQGLPQGPPQQQFPMQPASGQPGPSQFAPPPPPPGVNVNMNQMPMGPVQVPVQASPSPIGMSNTPSPGPVVGATKMPLQSGRRSKRDLSPEEQRRLQIRHAKVEKILKYSGLMTPRDKDFITRYQLSQIVTEDPYNEDFYFQVYKIIQRGGITSESNKGLIARAYLEHSGHRLGGRYKRTDIALQRMQSQVEKAVTVAKERPSKLKDQQAAAGNSSQDNKQANTVLGKISSTLNSKNPRRQLQIPRQQPSDPDALKDVTDSLTNVDLASSGSSSTGSSAAAVASKQRRRSSYAFNNGNGATNLNKSGGKKFILELIETVYEEILDLEANLRNGQQTDSTAMWEALHIDDSSYDVNPFISMLSFDKGIKIMPRIFNFLDKQQKLKILQKIFNELSHLQIIILSSYKTTPKPTLTQLKKVDLFQMIILKIIVSFLSNNSNFIEIMGLLLQLIRNNNVSFLTTSKIGLNLITILISRAALIKQDSSRSNILSSPEISTWNEIYDKLFTSLESKIQLIFPPREYNDHIMRLQNDKFMDEAYIWQFLASLALSGKLNHQRIIIDEVRDEIFATINEAETLQKKEKELSVLPQRSQELDTELKSIIYNKEKLYQDLNLFLNVMGLVYRDGEISELK
binding [2]: binds
